This is an account of results in PubChem BioAssay AID330 (DTP/NCI, 2004).

In this assay the test system is P388 leukemia ip, CD2F1 mice, survival T/C. The assay is described as follows: NCI In Vivo Anticancer Drug Screen. Data for tumor model P388 Leukemia (intraperitoneal) in CD2F1 (CDF1) mice. Conditions: T/C endpoint: median survival time, higher T/C = longer survival.
[1] abbreviates: dose: 100.0 mg/kg/injection, schedule: Q01DX009 (ip), vehicle: saline with Tween-80.
Setting [2] is: dose: 200.0 mg/kg/injection, schedule: Q01DX009 (ip), vehicle: saline with Tween-80.
[3] abbreviates: dose: 400.0 mg/kg/injection, schedule: Q04DX002 (ip), vehicle: saline with Tween-80.
[4] abbreviates: dose: 100.0 mg/kg/injection, schedule: Q01DX009 (ip), vehicle: saline.
Setting [5] is: dose: 200.0 mg/kg/injection, schedule: Q01DX009 (ip), vehicle: saline.
Where [6] appears, read: dose: 600.0 mg/kg/injection, schedule: Q01DX009 (ip), vehicle: saline.
The mark [7] stands for this setting: dose: 200.0 mg/kg/injection, schedule: Q01DX001 (ip), vehicle: Klucel (hydroxypropylcellulose) (HPC).
[8] abbreviates: dose: 400.0 mg/kg/injection, schedule: Q01DX001 (ip), vehicle: Klucel (hydroxypropylcellulose) (HPC).
The mark [9] stands for this setting: dose: 200.0 mg/kg/injection, schedule: Q01DX009 (ip), vehicle: Klucel (hydroxypropylcellulose) (HPC).

SMILES strings stand for the structures. The list does not hold the whole screen: it gathers tests that were run many times, whatever their T/C, doses with no T/C, and many T/C values between a quarter and a half above the control. Further doses and runs are listed elsewhere. T/C: endpoint of the treated group in % of that of the vehicle group. Some entries give survivors of the animals treated and no T/C: the source files T/C as zero there, which appears to mark a toxic dose or a test without result, not a measured value. Some survivor counts are full or nearly so, which does not show that the dose was tolerated: the source hardly ever lists a survival T/C far under the control, and the zero likely stands for such cases as well. Survivors were counted at the toxicity check, usually on the fifth day, unless a day is given; later deaths do not show. Schedule codes are those of the source, taken here to give the interval after Q, in days (D) or hours (H), and the number of doses after X. Additions like (4×) stand for listed records that agree. Some doses were run more than once; their values stand side by side, smallest first. For survival time, the PubChem record calls one and a half times the control and up active, and a quarter to a half above the control has no call in these data; cut-offs in other NCI protocols can differ.

For `O=C1c2c(Cl)c(Cl)c(Cl)c(Cl)c2C(=O)N1O`, the survivor count is, setting by setting: (dose: 50.0 mg/kg/injection, schedule: Q01DX009 (ip), vehicle: saline with Tween-80) 6 of 6; under setting [1], 6 of 6; under setting [2], 6 of 6.
In the case of `C=C(CN1CCCC1)C(=O)c1ccc(OC)cc1`, the survivor count (dose: 7.5 mg/kg/injection, schedule: Q01DX005 (ip), vehicle: saline) is 3 of 6; the survivor count (dose: 15.0 mg/kg/injection, schedule: Q01DX005 (ip), vehicle: saline) is on record as 1 of 6; the survivor count (dose: 30.0 mg/kg/injection, schedule: Q01DX005 (ip), vehicle: saline) is 0 of 6; the survivor count (dose: 60.0 mg/kg/injection, schedule: Q01DX005 (ip), vehicle: saline) was 0 of 6; the survivor count (dose: 120.0 mg/kg/injection, schedule: Q01DX005 (ip), vehicle: saline) is reported as 0 of 6; the survivor count (dose: 240.0 mg/kg/injection, schedule: Q01DX005 (ip), vehicle: saline) is on record as 0 of 6.
`CN=C(N)NN=C(c1ccc(C)cc1)c1ccc(C)cc1`: the survivor count is on record as 3 of 6 (dose: 50.0 mg/kg/injection, schedule: Q04DX002 (ip), vehicle: saline with Tween-80) and 3 of 6 under setting [3].
On to `Nc1nc2c(ncn2C2OC(CO)C(O)C2O)c(=O)[nH]1.[Cl-].[Cl-].[NH2-].[NH2-].[Pt+4]` (configuration not stated), for which the T/C is 126 % of control (dose: 2.0 mg/kg/injection, schedule: Q01DX009 (ip), vehicle: saline); 144 % of control (dose: 4.0 mg/kg/injection, schedule: Q01DX009 (ip), vehicle: saline); 128 % of control (dose: 32.0 mg/kg/injection, schedule: Q01DX009 (ip), vehicle: saline). Also, the survivor count (dose: 64.0 mg/kg/injection, schedule: Q01DX009 (ip), vehicle: saline) is 6 of 6 (2×).
As to `CCN(CC)CCOCc1ccc2c(c1)OCO2`, the survivor count (dose: 200.0 mg/kg/injection, schedule: Q01DX005 (ip), vehicle: saline with Tween-80) is recorded as 0 of 6.
Consider `S=C1Nc2ccccc2C2CC=NN12` (configuration not stated), for which the survivor count under setting [1] was 6 of 6.
On to `Nc1cc2c3c(cccc3c1)C(=O)N2`, for which the survivor count (dose: 400.0 mg/kg/injection, schedule: Q01DX001 (ip), vehicle: saline with Tween-80) was 3 of 6.
With `CN=C(NC)Nc1nc(-c2ccccc2)c(-c2ccccc2)[nH]1`, the survivor count (dose: 100.0 mg/kg/injection, schedule: Q04DX002 (ip), vehicle: saline with Tween-80) is 1 of 6; the survivor count (dose: 200.0 mg/kg/injection, schedule: Q04DX002 (ip), vehicle: saline with Tween-80) is 1 of 6; the survivor count under setting [3] is listed as 0 of 6.
In the case of `CCN(CC)C(=O)c1ccc(C)c2c1Nc1c(c(C)c3oc(=O)c(C)nc3c1C(=O)N(CC)CC)O2`, the survivor count (dose: 30.0 mg/kg/injection, schedule: Q01DX005 (ip), vehicle: Klucel (hydroxypropylcellulose) (HPC)) is listed as 6 of 6 and the survivor count (dose: 60.0 mg/kg/injection, schedule: Q01DX005 (ip), vehicle: Klucel (hydroxypropylcellulose) (HPC)) is listed as 6 of 6.
As for `[Cl][Sn]1([Cl])[CH2]CC[CH2][Sn]([Cl])([Cl])[CH2]CC[CH2]1`, the survivor count is on record as 1 of 6 (dose: 200.0 mg/kg/injection, schedule: Q04DX002 (ip), vehicle: saline) and 0 of 6 (dose: 400.0 mg/kg/injection, schedule: Q04DX002 (ip), vehicle: saline).
With `CNCCc1ccc(O)c(O)c1`, the survivor count runs as follows: under setting [4], 4 of 6; under setting [5], 4 of 6; (dose: 400.0 mg/kg/injection, schedule: Q01DX009 (ip), vehicle: saline) 5 of 6; under setting [6], 1 of 6 and 2 of 6. In addition, the T/C under setting [6] is 126 % of control.
With `NC(N)=NS(=O)(=O)c1ccc(NCc2c3ccccc3nc3ccccc23)cc1`, the T/C is, setting by setting: (dose: 6.25 mg/kg/injection, schedule: Q04DX002 (ip), vehicle: Klucel (hydroxypropylcellulose) (HPC)) 126 % of control; (dose: 12.5 mg/kg/injection, schedule: Q04DX002 (ip), vehicle: Klucel (hydroxypropylcellulose) (HPC)) 126 % of control; (dose: 25.0 mg/kg/injection, schedule: Q04DX002 (ip), vehicle: Klucel (hydroxypropylcellulose) (HPC)) 140 % of control; (dose: 50.0 mg/kg/injection, schedule: Q04DX002 (ip), vehicle: Klucel (hydroxypropylcellulose) (HPC)) 145 % of control; (dose: 50.0 mg/kg/injection, schedule: Q04DX003 (ip), vehicle: Klucel (hydroxypropylcellulose) (HPC)) 148 % of control; (dose: 100.0 mg/kg/injection, schedule: Q04DX002 (ip), vehicle: Klucel (hydroxypropylcellulose) (HPC)) 140 % of control. The T/C by setting is: (dose: 100.0 mg/kg/injection, schedule: Q04DX003 (ip), vehicle: Klucel (hydroxypropylcellulose) (HPC)) 144 % of control; (dose: 200.0 mg/kg/injection, schedule: Q04DX002 (ip), vehicle: Klucel (hydroxypropylcellulose) (HPC)) 140 % of control; (dose: 200.0 mg/kg/injection, schedule: Q04DX003 (ip), vehicle: Klucel (hydroxypropylcellulose) (HPC)) 144 % of control; (dose: 400.0 mg/kg/injection, schedule: Q04DX002 (ip), vehicle: Klucel (hydroxypropylcellulose) (HPC)) 145 % of control.
In the case of `NC(=O)N/N=C1\CCC2CCCCC2C1` (configuration not stated), the survivor count is, setting by setting: under setting [7], 3 of 6; under setting [8], 0 of 6.
As to `CNC(=O)OCc1c(COC(=O)NC)c(-c2ccccc2)n2c1CCC2`, under setting [9], the survivor count was 6 of 6.
With `CC([NH-])C[NH-].[Cl][Pt+2][Cl]` (configuration not stated), the T/C (dose: 6.25 mg/kg/injection, schedule: Q01DX001 (ip), vehicle: Klucel (hydroxypropylcellulose) (HPC)) was 137 % of control. The survivor count is on record as 0 of 6 (dose: 25.0 mg/kg/injection, schedule: Q01DX001 (ip), vehicle: Klucel (hydroxypropylcellulose) (HPC)); 0 of 6 (dose: 50.0 mg/kg/injection, schedule: Q01DX001 (ip), vehicle: Klucel (hydroxypropylcellulose) (HPC)); 0 of 6 (dose: 100.0 mg/kg/injection, schedule: Q01DX001 (ip), vehicle: Klucel (hydroxypropylcellulose) (HPC)); 0 of 6 under setting [7]; 0 of 6 under setting [8].
For the molecule `CC1NC(=O)N(C(C)(C)C)C1=O` (configuration not stated), where the note is “dose: 400.0 mg/kg/injection, schedule: Q01DX005 (ip), vehicle: saline”, the survivor count was 2 of 5 and 3 of 6.
On to `CC1(C)OC2CC(=O)OCC23C1CC(=O)C1(C)C3CCC2(C)C(c3ccoc3)OC(=O)C3OC321` (configuration not stated), for which the survivor count (dose: 400.0 mg/kg/injection, schedule: Q01DX010 (ip), vehicle: saline) is given as 6 of 6.
With `CNS(=O)(=O)c1c([N+](=O)[O-])ncn1C`, the T/C (dose: 50.0 mg/kg/injection, schedule: Q01DX009 (ip), vehicle: Klucel (hydroxypropylcellulose) (HPC)) is 131 % of control and the T/C (dose: 100.0 mg/kg/injection, schedule: Q01DX009 (ip), vehicle: Klucel (hydroxypropylcellulose) (HPC)) is 143 % of control. Moreover, the survivor count under setting [9] is reported as 0 of 6.
Turning to `Cc1nc2c([N+](=O)[O-])c(NCCCc3ccccc3)c([N+](=O)[O-])cc2[nH]1`, the survivor count (dose: 200.0 mg/kg/injection, schedule: Q04DX003 (ip), vehicle: saline with Tween-80) is 0 of 6 and 1 of 6; the survivor count (dose: 400.0 mg/kg/injection, schedule: Q04DX003 (ip), vehicle: saline with Tween-80) was 0 of 6.
Take `CCOC(=O)/C=C(\C)NC(C)=NC(C)(C)C`: the survivor count under setting [5] was 0 of 6.
As to `C=CC1CN2CCC1CC2C(O)c1ccnc2ccc(OC)cc12` (configuration not stated) (tested in a mixture with another compound), the survivor count under setting [2] is given as 2 of 6.
On to `COc1cccc2c1C(=O)c1c(O)c3c(c(O)c1C2=O)C[C@@](O)(C(C)=O)C[C@@H]3OC1CC(N)C(OC2CC(O)C(O)C(C)O2)C(C)O1` (some centres not stated), for which the T/C (dose: 18.0 mg/kg/injection, schedule: Q04DX003 (ip), vehicle: distilled water + Tween-80) was 126 % of control and the T/C (dose: 50.0 mg/kg/injection, schedule: Q04DX003 (ip), vehicle: distilled water + Tween-80) is 128 % of control.
As for `COC(OC)C(C)N1CCCCC1` (configuration not stated), the survivor count under setting [4] is on record as 4 of 6 and the survivor count under setting [5] is 0 of 6.
